± gives the standard deviation of the averaged measurements. This is a selection; strong and weak results do not stand in their true shares. Most values lie at the level of the controls, where differences are scatter.

Sequences of proteins named here, by UniProt entry; tags and fusion partners are left off. A change or cut given only in a name is not applied to a line headed by its entry.
UniProt Q8IWR0: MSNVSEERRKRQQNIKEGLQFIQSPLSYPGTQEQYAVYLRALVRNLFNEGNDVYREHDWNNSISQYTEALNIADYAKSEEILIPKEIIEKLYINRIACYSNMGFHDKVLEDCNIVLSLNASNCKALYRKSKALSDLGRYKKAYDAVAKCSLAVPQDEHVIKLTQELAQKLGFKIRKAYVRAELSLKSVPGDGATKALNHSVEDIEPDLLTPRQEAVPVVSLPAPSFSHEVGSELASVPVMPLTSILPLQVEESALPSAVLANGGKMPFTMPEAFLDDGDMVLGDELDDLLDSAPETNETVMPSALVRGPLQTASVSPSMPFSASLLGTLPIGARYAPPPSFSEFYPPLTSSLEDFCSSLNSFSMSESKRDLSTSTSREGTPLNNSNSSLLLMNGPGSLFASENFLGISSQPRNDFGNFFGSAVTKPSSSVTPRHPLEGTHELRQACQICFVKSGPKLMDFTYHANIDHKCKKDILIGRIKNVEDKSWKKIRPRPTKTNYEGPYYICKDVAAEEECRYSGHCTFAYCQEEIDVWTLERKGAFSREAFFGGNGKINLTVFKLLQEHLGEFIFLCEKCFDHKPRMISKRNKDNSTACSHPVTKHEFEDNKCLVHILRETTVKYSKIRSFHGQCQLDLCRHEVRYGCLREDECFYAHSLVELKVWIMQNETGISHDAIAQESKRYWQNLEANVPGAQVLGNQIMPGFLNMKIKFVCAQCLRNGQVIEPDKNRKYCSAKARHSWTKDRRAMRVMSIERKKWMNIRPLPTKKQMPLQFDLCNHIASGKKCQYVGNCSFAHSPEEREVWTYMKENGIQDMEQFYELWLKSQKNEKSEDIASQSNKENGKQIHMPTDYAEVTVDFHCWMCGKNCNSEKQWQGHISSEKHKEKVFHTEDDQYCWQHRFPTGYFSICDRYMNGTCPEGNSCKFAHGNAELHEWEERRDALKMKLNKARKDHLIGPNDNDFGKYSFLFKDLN
UniProt Q8NC44: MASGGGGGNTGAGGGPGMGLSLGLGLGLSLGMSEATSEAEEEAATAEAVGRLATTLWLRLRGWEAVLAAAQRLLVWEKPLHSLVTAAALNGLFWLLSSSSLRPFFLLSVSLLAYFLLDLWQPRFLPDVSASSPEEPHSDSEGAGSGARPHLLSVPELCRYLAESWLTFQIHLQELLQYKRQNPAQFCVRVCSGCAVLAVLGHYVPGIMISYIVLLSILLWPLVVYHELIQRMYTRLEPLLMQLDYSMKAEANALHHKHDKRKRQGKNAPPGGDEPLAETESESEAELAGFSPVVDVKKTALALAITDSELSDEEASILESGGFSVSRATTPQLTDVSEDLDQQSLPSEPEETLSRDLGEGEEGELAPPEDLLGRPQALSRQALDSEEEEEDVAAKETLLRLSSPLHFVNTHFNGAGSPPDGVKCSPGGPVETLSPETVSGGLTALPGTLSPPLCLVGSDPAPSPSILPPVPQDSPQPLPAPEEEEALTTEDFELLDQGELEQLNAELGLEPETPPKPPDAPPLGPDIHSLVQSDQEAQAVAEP
UniProt Q8NFY9: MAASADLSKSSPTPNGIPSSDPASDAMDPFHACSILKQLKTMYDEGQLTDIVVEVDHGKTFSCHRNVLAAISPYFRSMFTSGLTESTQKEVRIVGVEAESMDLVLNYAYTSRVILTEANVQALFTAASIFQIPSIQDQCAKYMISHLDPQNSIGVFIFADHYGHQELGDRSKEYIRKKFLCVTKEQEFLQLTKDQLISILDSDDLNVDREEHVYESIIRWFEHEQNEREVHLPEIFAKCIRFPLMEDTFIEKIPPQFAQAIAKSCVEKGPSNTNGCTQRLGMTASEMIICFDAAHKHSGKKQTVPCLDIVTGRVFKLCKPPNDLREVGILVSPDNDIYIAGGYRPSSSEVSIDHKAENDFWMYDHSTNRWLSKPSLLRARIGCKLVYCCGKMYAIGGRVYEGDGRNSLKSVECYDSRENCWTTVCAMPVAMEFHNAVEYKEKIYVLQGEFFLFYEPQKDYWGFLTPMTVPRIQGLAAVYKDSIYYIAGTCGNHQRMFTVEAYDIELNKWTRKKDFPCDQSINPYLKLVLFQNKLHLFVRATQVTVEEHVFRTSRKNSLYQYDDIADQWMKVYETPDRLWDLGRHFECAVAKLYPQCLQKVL
UniProt Q8NC51: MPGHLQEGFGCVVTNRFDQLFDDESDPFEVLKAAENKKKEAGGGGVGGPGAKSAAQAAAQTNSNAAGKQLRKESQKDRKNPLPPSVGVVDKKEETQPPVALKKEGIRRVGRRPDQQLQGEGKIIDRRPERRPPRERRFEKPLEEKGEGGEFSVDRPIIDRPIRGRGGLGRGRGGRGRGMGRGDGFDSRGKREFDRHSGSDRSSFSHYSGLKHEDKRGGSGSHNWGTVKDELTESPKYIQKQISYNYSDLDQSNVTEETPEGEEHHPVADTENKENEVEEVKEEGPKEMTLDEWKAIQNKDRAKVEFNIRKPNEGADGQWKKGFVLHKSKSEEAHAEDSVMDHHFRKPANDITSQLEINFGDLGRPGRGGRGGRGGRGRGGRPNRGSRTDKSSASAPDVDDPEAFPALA
UniProt Q8NHU6: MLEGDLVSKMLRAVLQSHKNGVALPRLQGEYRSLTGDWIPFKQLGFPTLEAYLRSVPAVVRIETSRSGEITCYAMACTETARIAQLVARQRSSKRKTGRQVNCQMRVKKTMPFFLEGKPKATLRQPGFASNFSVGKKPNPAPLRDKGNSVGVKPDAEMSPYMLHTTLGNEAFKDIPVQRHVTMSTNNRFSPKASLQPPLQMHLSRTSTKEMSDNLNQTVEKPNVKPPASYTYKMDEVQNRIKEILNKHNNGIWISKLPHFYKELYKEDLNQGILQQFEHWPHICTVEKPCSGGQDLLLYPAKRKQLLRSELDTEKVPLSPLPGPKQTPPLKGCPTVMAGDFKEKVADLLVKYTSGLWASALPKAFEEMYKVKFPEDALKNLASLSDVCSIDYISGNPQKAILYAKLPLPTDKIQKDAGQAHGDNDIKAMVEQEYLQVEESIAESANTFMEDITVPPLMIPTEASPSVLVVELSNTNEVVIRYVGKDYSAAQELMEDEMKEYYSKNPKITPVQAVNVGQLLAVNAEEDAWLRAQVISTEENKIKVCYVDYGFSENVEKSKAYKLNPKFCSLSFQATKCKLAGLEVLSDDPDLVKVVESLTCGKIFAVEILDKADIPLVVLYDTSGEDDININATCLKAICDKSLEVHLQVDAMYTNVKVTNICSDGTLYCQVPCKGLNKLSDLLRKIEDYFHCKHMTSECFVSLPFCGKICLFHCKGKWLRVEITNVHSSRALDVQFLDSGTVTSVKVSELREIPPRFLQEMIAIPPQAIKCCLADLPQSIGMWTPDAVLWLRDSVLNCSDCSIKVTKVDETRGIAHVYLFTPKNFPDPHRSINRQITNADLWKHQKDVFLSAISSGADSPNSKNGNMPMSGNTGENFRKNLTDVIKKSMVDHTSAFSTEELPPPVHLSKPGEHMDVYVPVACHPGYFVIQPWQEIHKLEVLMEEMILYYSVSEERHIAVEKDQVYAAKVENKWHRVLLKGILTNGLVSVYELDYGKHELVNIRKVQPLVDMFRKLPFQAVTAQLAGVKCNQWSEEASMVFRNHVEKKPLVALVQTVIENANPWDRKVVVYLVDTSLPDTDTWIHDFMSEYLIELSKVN
UniProt Q8N2Z9: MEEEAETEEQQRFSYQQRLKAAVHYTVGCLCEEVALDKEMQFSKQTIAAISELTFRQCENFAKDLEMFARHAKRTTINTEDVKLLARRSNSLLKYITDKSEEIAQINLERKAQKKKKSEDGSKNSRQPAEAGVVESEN
UniProt Q8IWD4: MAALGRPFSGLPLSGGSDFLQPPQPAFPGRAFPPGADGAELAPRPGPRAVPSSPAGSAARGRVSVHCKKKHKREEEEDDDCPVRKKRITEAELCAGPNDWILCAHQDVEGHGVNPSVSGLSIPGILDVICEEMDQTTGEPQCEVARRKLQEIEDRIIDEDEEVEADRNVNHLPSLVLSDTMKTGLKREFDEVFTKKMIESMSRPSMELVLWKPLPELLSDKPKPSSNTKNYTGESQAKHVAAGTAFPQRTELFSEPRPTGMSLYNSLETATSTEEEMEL
UniProt Q8NBN7: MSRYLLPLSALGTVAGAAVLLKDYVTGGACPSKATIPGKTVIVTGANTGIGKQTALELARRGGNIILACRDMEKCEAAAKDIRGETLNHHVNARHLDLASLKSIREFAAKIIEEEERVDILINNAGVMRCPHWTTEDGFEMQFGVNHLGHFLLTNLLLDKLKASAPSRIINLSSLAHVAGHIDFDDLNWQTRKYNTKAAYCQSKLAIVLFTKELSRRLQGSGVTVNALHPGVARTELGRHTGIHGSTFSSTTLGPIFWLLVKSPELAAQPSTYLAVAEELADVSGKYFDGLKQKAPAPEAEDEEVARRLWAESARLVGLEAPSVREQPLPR
UniProt Q8NFF5: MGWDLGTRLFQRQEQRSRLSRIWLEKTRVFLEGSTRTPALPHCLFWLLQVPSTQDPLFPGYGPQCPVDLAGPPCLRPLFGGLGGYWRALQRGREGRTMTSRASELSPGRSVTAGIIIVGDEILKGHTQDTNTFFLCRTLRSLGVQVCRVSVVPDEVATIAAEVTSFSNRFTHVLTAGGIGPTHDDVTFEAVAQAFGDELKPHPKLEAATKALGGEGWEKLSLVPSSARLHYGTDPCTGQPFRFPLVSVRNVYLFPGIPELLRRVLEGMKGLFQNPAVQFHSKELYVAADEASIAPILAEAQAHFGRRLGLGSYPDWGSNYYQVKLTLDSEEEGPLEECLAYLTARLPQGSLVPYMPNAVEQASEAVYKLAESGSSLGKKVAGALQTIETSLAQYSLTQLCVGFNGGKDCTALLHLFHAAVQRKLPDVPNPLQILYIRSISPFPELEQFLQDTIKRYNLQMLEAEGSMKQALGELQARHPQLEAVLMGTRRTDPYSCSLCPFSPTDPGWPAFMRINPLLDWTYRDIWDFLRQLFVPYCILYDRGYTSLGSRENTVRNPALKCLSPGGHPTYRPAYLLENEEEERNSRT
UniProt Q8N9M5: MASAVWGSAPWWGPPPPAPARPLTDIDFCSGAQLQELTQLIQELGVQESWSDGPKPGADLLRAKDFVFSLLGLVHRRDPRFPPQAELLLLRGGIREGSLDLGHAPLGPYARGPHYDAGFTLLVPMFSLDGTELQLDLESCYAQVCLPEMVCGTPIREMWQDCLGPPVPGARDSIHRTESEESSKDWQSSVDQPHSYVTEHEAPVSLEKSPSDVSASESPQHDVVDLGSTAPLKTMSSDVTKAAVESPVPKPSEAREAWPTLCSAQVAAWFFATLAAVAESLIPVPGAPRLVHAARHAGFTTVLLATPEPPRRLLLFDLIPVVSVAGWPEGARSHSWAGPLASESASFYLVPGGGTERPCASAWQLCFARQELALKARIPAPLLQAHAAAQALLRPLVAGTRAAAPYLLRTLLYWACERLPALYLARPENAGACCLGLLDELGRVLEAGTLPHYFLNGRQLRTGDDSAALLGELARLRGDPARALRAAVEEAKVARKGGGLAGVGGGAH
UniProt Q8N8A2: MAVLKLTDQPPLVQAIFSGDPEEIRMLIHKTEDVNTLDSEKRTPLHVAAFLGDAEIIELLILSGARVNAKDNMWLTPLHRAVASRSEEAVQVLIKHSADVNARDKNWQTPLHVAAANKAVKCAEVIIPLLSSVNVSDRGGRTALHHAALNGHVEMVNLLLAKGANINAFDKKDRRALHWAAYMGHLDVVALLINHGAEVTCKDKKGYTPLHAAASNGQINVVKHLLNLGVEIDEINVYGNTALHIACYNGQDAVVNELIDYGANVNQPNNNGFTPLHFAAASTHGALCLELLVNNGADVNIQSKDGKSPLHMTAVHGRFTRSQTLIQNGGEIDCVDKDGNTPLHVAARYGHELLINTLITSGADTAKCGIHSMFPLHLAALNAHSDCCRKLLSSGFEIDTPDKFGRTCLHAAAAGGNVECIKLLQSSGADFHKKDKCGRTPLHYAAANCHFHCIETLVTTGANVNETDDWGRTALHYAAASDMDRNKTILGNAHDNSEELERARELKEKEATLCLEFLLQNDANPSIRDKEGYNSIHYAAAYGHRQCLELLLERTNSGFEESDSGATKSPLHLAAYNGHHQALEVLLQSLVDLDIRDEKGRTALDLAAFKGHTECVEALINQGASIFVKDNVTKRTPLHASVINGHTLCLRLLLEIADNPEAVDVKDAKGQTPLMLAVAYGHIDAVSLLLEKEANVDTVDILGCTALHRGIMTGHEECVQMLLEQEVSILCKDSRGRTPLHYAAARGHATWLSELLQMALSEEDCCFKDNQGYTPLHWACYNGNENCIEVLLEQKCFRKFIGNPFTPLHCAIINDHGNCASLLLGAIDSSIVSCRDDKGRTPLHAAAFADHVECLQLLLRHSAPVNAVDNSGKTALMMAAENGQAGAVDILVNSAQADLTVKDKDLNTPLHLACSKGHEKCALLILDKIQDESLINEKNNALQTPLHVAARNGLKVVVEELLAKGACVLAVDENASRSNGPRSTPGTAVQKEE

Compound in one experiment: Nc1ncnc2c1ncn2[C@@H]1O[C@H](COP(=O)(O)OP(=O)(O)OP(=O)(O)O)[C@@H](O)[C@H]1O [adenosine triphosphate]
The experiment is described as follows: NP40-soluble protein abundance relative to vehicle (solubility fold change) (ratio); higher = more soluble protein in presence of ATP. To be noted: concentration: 0.1mM. A digest of the protocol:
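Data come from three independent experiments in which Dounce-homogenised Jurkat crude lysate was treated at eight concentrations from 0.1 to 10 mM. Treatment ran 10 min at room temperature and then 3 min at 37 °C, after which 0.8% NP40 and benzonase were added for 60 min at 4 °C before ultracentrifugation. The supernatant underwent TMT labelling and LC-MS/MS, and vsn-normalised intensities were expressed as fold change against the detergent-processed vehicle in each replicate.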
Regarding UniProt Q8IZC7 and related entries, the NP40-soluble protein abundance was 0.934 ± 0.14.

Regarding ZC3H7A (UniProt Q8IWR0), the NP40-soluble protein abundance was 1.04 ± 0.062.

Turning to UniProt Q8NC44, the NP40-soluble protein abundance came to 0.985 ± 0.06.

For KBTBD8 (UniProt Q8NFY9), the NP40-soluble protein abundance was found to be 1 ± 0.12.

As for UniProt Q8NC51 and related entries, the NP40-soluble protein abundance was found to be 0.93 ± 0.062.

UniProt Q8IZE3-2: the NP40-soluble protein abundance came out at 0.999 ± 0.043.

For the target UniProt Q8NHU6 and related entries, the NP40-soluble protein abundance is 1.05 ± 0.045.

As for NUDCD3 (UniProt Q8IVD9), the NP40-soluble protein abundance worked out at 0.99 ± 0.042.

Consider C1orf174 (UniProt Q8IYL3), for which the NP40-soluble protein abundance stood at 0.894 ± 0.054.

In the case of UniProt Q8TAA5 and related entries, the NP40-soluble protein abundance amounted to 0.988 ± 0.045.

Consider UniProt Q8N9M1 and related entries, for which the NP40-soluble protein abundance was 0.97 ± 0.035.

Regarding UniProt Q8NBJ5, the NP40-soluble protein abundance amounted to 1.04 ± 0.06.

Turning to C2orf69 (UniProt Q8N8R5), the NP40-soluble protein abundance was found to be 1.03 ± 0.053.

Regarding UniProt Q8N2Z9, the NP40-soluble protein abundance is 0.873 ± 0.12.

As for UniProt Q8NDV7 and related entries, the NP40-soluble protein abundance was 0.987 ± 0.016.

Turning to TTC9C (UniProt Q8N5M4), the NP40-soluble protein abundance was 0.914 ± 0.053.

For the target GIMAP7 (UniProt Q8NHV1), the NP40-soluble protein abundance stood at 0.972 ± 0.035.

Regarding KIAA0319L (UniProt Q8IZA0), the NP40-soluble protein abundance came to 0.982 ± 0.035.

As for CCDC117 (UniProt Q8IWD4), the NP40-soluble protein abundance stood at 0.96 ± 0.024.

As for RDH13 (UniProt Q8NBN7), the NP40-soluble protein abundance came to 0.956 ± 0.053.

Regarding RPUSD2 (UniProt Q8IZ73), the NP40-soluble protein abundance turned out to be 1.07 ± 0.043.

For UniProt Q8IZM8, the NP40-soluble protein abundance came out at 0.993 ± 0.011.

As for UniProt Q8NFF5 and related entries, the NP40-soluble protein abundance was 1.01 ± 0.048.

UniProt Q8IWA5-2: the NP40-soluble protein abundance was 0.947 ± 0.033.

For the target TMEM102 (UniProt Q8N9M5), the NP40-soluble protein abundance came to 0.959 ± 0.025.

In the case of ANKRD44 (UniProt Q8N8A2), the NP40-soluble protein abundance worked out at 0.984 ± 0.063.

In the case of GPD1L (UniProt Q8N335), the NP40-soluble protein abundance was found to be 0.985 ± 0.021.

Turning to ANKRD52 (UniProt Q8NB46), the NP40-soluble protein abundance was 1.04 ± 0.075.

On to UniProt Q8IY95 and related entries, for which the NP40-soluble protein abundance is 1 ± 0.083.

On to UniProt Q8N573 and related entries, for which the NP40-soluble protein abundance was determined as 1.04 ± 0.032.

For the target GSTCD (UniProt Q8NEC7), the NP40-soluble protein abundance came to 1.03 ± 0.053.

Turning to GCC2 (UniProt Q8IWJ2), the NP40-soluble protein abundance is 0.9954 ± 0.0065.

For UniProt Q8IZ21 and related entries, the NP40-soluble protein abundance was determined as 0.996 ± 0.013.

As for UniProt Q8NFD5 and related entries, the NP40-soluble protein abundance was 0.999 ± 0.012.

Take CADM4 (UniProt Q8NFZ8): the NP40-soluble protein abundance was found to be 1.14 ± 0.11.

As to UniProt Q8NEZ4 and related entries, the NP40-soluble protein abundance amounted to 1.024 ± 0.01.

Turning to UniProt Q8IW35 and related entries, the NP40-soluble protein abundance was determined as 0.996 ± 0.017.

Staying with this experiment, now noted: concentration: 0.5mM.
UniProt Q8IZC7 and related entries: the NP40-soluble protein abundance is 0.898 ± 0.29.

For ZC3H7A (UniProt Q8IWR0), the NP40-soluble protein abundance came to 1.05 ± 0.045.

Consider UniProt Q8NC44, for which the NP40-soluble protein abundance worked out at 0.966 ± 0.084.

Take KBTBD8 (UniProt Q8NFY9): the NP40-soluble protein abundance was 1.09 ± 0.025.

With UniProt Q8NC51 and related entries, the NP40-soluble protein abundance stood at 0.972 ± 0.042.

Regarding UniProt Q8IZE3-2, the NP40-soluble protein abundance is 1.02 ± 0.079.

UniProt Q8NHU6 and related entries: the NP40-soluble protein abundance came out at 1.03 ± 0.063.

As to NUDCD3 (UniProt Q8IVD9), the NP40-soluble protein abundance came to 1.03 ± 0.075.

As for C1orf174 (UniProt Q8IYL3), the NP40-soluble protein abundance worked out at 0.98 ± 0.087.

As for UniProt Q8TAA5 and related entries, the NP40-soluble protein abundance is 0.889 ± 0.081.

As for UniProt Q8N9M1 and related entries, the NP40-soluble protein abundance amounted to 0.92 ± 0.026.

In the case of UniProt Q8NBJ5, the NP40-soluble protein abundance worked out at 1 ± 0.026.

On to C2orf69 (UniProt Q8N8R5), for which the NP40-soluble protein abundance amounted to 1.02 ± 0.044.

In the case of UniProt Q8N2Z9, the NP40-soluble protein abundance turned out to be 0.934 ± 0.14.

UniProt Q8NDV7 and related entries: the NP40-soluble protein abundance was found to be 1 ± 0.035.

For the target TTC9C (UniProt Q8N5M4), the NP40-soluble protein abundance was 0.92 ± 0.11.

In the case of GIMAP7 (UniProt Q8NHV1), the NP40-soluble protein abundance is 0.97 ± 0.058.

As for KIAA0319L (UniProt Q8IZA0), the NP40-soluble protein abundance came out at 0.946 ± 0.058.

Take CCDC117 (UniProt Q8IWD4): the NP40-soluble protein abundance stood at 0.943 ± 0.021.

In the case of RDH13 (UniProt Q8NBN7), the NP40-soluble protein abundance is 0.998 ± 0.03.

Take RPUSD2 (UniProt Q8IZ73): the NP40-soluble protein abundance stood at 1.05 ± 0.052.

UniProt Q8IZM8: the NP40-soluble protein abundance was 0.99 ± 0.029.

Turning to UniProt Q8NFF5 and related entries, the NP40-soluble protein abundance turned out to be 0.998 ± 0.042.

On to UniProt Q8IWA5-2, for which the NP40-soluble protein abundance worked out at 0.9232 ± 0.0027.

For TMEM102 (UniProt Q8N9M5), the NP40-soluble protein abundance stood at 0.964 ± 0.036.

On to ANKRD44 (UniProt Q8N8A2), for which the NP40-soluble protein abundance worked out at 0.985 ± 0.058.

Take GPD1L (UniProt Q8N335): the NP40-soluble protein abundance stood at 0.998 ± 0.025.

Take ANKRD52 (UniProt Q8NB46): the NP40-soluble protein abundance was found to be 1.02 ± 0.06.

Take UniProt Q8IY95 and related entries: the NP40-soluble protein abundance worked out at 1 ± 0.059.

Regarding UniProt Q8N573 and related entries, the NP40-soluble protein abundance was found to be 1.01 ± 0.022.

For the target GSTCD (UniProt Q8NEC7), the NP40-soluble protein abundance is 0.989 ± 0.05.

For GCC2 (UniProt Q8IWJ2), the NP40-soluble protein abundance was found to be 1 ± 0.04.

Regarding UniProt Q8IZ21 and related entries, the NP40-soluble protein abundance amounted to 0.955 ± 0.023.

As for UniProt Q8NFD5 and related entries, the NP40-soluble protein abundance amounted to 1.02 ± 0.072.

For CADM4 (UniProt Q8NFZ8), the NP40-soluble protein abundance stood at 1.12 ± 0.044.

In the case of UniProt Q8NEZ4 and related entries, the NP40-soluble protein abundance is 1.03 ± 0.038.

As to UniProt Q8IW35 and related entries, the NP40-soluble protein abundance was found to be 0.995 ± 0.025.

These data come from the supplement of paper PMC6411743.
